# According to the supplement of paper PMC8166895:
# Where a name gives a salt, the structure may show the parent alone. The list shows a part of the results. Most values lie at the level of the controls, where differences are scatter.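 A single-replicate pilot screen of approved drugs and clinical or known-target compounds measured melting temperature via differential scanning fluorimetry. Top stabilizing hits raised the melting point by 2 °C or more; negative shifts indicate destabilization.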
# System: SARS-CoV-2 main protease (Mpro, nsp5)
# Test: thermal shift ΔTm of Mpro relative to plate average Tm; higher = stronger thermal stabilization of Mpro (binding)
# Settings: 10 µM; protein concentration 1 µM
row,Structure (SMILES),thermal shift ΔTm of Mpro [°C]
1,NCCOc1cc(C(=O)Nc2cc(OCCN)c3ccccc3n2)nc(C(=O)Nc2cc(OCCN)c3ccccc3n2)c1 [Pyridostatin],0.0899
2,COc1cc(OC)c2c(=O)[nH]c(-c3cc(C)c(OCCO)c(C)c3)nc2c1,-0.175
3,Cc1cc(OCCN2CCOCC2)nn1-c1ccc2ccccc2c1 [S1RA hydrochloride],-0.0328
4,CC(C)[C@H]1C(=O)N[C@@H](CCCNC(=N)N)C(=O)NCC(=O)N[C@@H](CC(=O)O)C(=O)N[C@H](Cc2ccccc2)C(=O)N1C [Cilengitide],0.0557
5,O=C(c1cccc(Cl)c1F)N1CCN(Cc2cccc(Nc3nccs3)n2)CC1,-0.0897
6,NCCCC[C@H](N[C@@H](CCc1ccccc1)C(=O)O)C(=O)N1CCC[C@H]1C(=O)O [Lisinopril dihydrate],0.0429
7,COc1ccc2nc(/C=C/c3cccc([N+](=O)[O-])c3)n(-c3ccc(C(=O)O)cc3)c(=O)c2c1,0.0764
8,CC(C)(C)NC[C@H](O)COc1nsnc1N1CCOCC1 [Timolol Maleate],-0.0873
9,COc1ccccc1C(=O)Nc1cc2c(cc1N1CCCCC1)n(C)c(=O)n2C,0.0347
10,O=C(Nc1cccc2c(=O)cc(-c3nnn[nH]3)oc12)c1ccc(OCCCCc2ccccc2)cc1 [Pranlukast],-0.0624
11,Cn1cc(-c2ccc(F)c(C(F)(F)F)c2)nc1C1CCN(c2ncnc3[nH]ncc23)CC1,0.0762
12,O=C(Nc1c[nH]nc1-c1nc2ccc(CN3CCOCC3)cc2[nH]1)NC1CC1,0.0849
13,CCOC(=O)[C@H](CCc1ccccc1)N[C@H]1CCc2ccccc2N(CC(=O)O)C1=O [Benazepril HCl],0.313
14,Cc1nc(NC(=O)N2CCC[C@H]2C(N)=O)sc1-c1csc(C(C)(C)C)n1,0.0538
15,COC1=C(OC)C(=O)C(CCCCCCCCCCO)=C(C)C1=O [Idebenone],-0.117
16,CN(Cc1ccccc1)c1ccc2cc(C(=O)O)c(=O)oc2c1,0.012
17,C[C@]12CC[C@H]3[C@@H](CC[C@@]45O[C@@H]4C(O)=C(C#N)C[C@]35C)[C@@H]1CC[C@@H]2O [Trilostane],0.312
18,CC1(C)Cc2c(sc(NC(=O)c3ccn[nH]3)c2C(N)=O)C(C)(C)O1,0.154
19,C[C@@H]1C[C@H]2[C@@H]3CCC4=CC(=O)C=C[C@]4(C)[C@@]3(F)[C@@H](O)C[C@]2(C)[C@@]1(O)C(=O)CO [Dexamethasone (DHAP)],0.302
20,OC1(c2ccc(Cl)c(C(F)(F)F)c2)CCN(CCCC(c2ccc(F)cc2)c2ccc(F)cc2)CC1 [Penfluridol],0.0125
21,CC(C)Oc1ccc(C(=O)N[C@H](CNC(=O)CN(C)C)Cc2ccc(-c3cn4cccc([C@H](C)O)c4n3)cc2)cc1Cl,-0.0365
22,O=C(O)COC(=O)Cc1ccccc1Nc1c(Cl)cccc1Cl [Aceclofenac],0.0734
23,Cc1cnc(NC(=O)C2=C(O)c3ccccc3S(=O)(=O)N2C)s1 [Meloxicam],-0.00364
24,CCCC(C)(C)c1ccc2c(c1)OC(C)(C)[C@@H]1CC=C(C)C[C@@H]21,-0.056
25,O=C(O)CCCc1ccccc1 [Sodium Phenylbutyrate],-0.153

# Some values from the list:
# Value of NCCOc1cc(C(=O)Nc2cc(OCCN)c3ccccc3n2)nc(C(=O)Nc2cc(OCCN)c3ccccc3n2)c1 [Pyridostatin] under thermal shift ΔTm of Mpro [°C]: 0.0899
# Value of CCCC(C)(C)c1ccc2c(c1)OC(C)(C)[C@@H]1CC=C(C)C[C@@H]21 under thermal shift ΔTm of Mpro [°C]: -0.056
# Value of C[C@@H]1C[C@H]2[C@@H]3CCC4=CC(=O)C=C[C@]4(C)[C@@]3(F)[C@@H](O)C[C@]2(C)[C@@]1(O)C(=O)CO [Dexamethasone (DHAP)] under thermal shift ΔTm of Mpro [°C]: 0.302

# Next part

row,Structure (SMILES),thermal shift ΔTm of Mpro [°C]
1,CC1(C)O[C@@H]2C[C@H]3[C@@H]4CCC5=CC(=O)C=C[C@]5(C)[C@@]4(F)[C@@H](O)C[C@]3(C)[C@]2(C(=O)CO)O1 [Triamcinolone Acetonide],0.0303
2,C[C@H]1CN(C[C@H](Cc2ccccc2)C(=O)NCC(=O)O)CC[C@@]1(C)c1cccc(O)c1 [Alvimopan],0.134
3,COc1ccccc1S(=O)(=O)Nc1ccc2c(c1)CN(C)C(=O)N2,0.327
4,COc1ccccc1-n1c(SCC(=O)Nc2nc3ccc(C)cc3s2)nc2c(c1=O)SCC2,-0.206
5,COc1ccc(CCC(=O)N(c2nccc3ccccc23)[C@@H]2CCCNC2)cc1,-0.117
6,C/C=C\c1cc(OC)c(OC)cc1OC [beta-Asarone],-0.0645
7,ClCC1C(CCl)[C@@]2(Cl)C(Cl)=C(Cl)[C@]1(Cl)C2(Cl)Cl (stereo not given in full) [Alodan],-0.365
8,Cc1nnc(NS(=O)(=O)c2ccc(N)cc2)s1 [Sulfamethizole],0.158
9,COc1cc(NS(C)(=O)=O)ccc1Nc1c2ccccc2nc2ccccc12 [Amsacrine],-0.151
10,C[C@@H]1O[C@@H](O[C@H]2C[C@@H](O)[C@]3(CO)[C@H]4[C@H](O)C[C@]5(C)[C@@H](C6=CC(=O)OC6)CC[C@]5(O)[C@@H]4CC[C@]3(O)C2)[C@H](O)[C@H](O)[C@H]1O [Ouabain],-0.0267
11,CCN1CCN(c2cc3c(cc2F)c(=O)c(C(=O)O)cn3C2CC2)CC1 [Enrofloxacin],-0.00901
12,O=C1C2CC3CC1CC(O)(C3)C2 [Kemantane],-0.0428
13,FC(F)c1nc2ccccc2n1-c1nc(N2CCOCC2)nc(N2CCOCC2)n1,0.0927
14,Oc1ccc(OCc2ccccc2)cc1 [Monobenzone],-0.481
15,Cc1cccc(COc2cccc(/C=C3\C(=O)NN(c4ccccc4)C3=O)c2)c1,0.155
16,C[C@H]1C[C@H]2[C@@H]3CCC4=CC(=O)C=C[C@]4(C)[C@@]3(F)[C@@H](O)C[C@]2(C)[C@@]1(O)C(=O)CO [Betamethasone],0.567
17,"NCC(O)c1ccc(O)cc1 (racemic) [(+,-)-Octopamine HCl]",-0.0441
18,"CNC(=O)[C@H](Cc1c[nH]c2ccccc12)NC(=O)[C@@H](CC(=O)NO)CC(C)C [Ilomastat (GM6001, Galardin)]",-0.107
19,C[C@H]1CC[C@H]2[C@H](C)[C@@H]3CC[C@@H]4[C@@H](C[C@H]5[C@H]4C[C@@H](O)[C@H]4C[C@@H](O)CC[C@@]45C)[C@@H]3CN2C1 [Hupehenine],0.0374
20,COc1cc(O)c2c(=O)cc(-c3ccccc3)oc2c1 [Tectochrysin],-0.0805
21,COc1cccc(/C=N/N(C(=O)C(F)(F)F)c2ccc(C)cc2C)c1,0.00901
22,CCCN(CCC)C(=O)C1=Cc2ccc(-c3ccc(C(=O)N4CCCC4)cc3)cc2N=C(N)C1 [Motolimod],-0.252
23,O=C(NCCO[N+](=O)[O-])c1cccnc1 [Nicorandil],0.181
24,Cc1ccc(Cl)c(Nc2ccccc2C(=O)O)c1Cl [Meclofenamate Sodium],-0.0425
25,O=C(c1cn(Cc2cncn2Cc2ccc(Br)cc2)cc1-c1cccc2ccccc12)N1CCOCC1,-0.558

row,Structure (SMILES),thermal shift ΔTm of Mpro [°C]
1,CCN1CCN(C(=O)N[C@@H](C(=O)N[C@@H]2C(=O)N3C(C(=O)O)=C(CSc4nnnn4C)CS[C@H]23)c2ccc(O)cc2)C(=O)C1=O [Cefoperazone],-0.0744
2,CCN1CCN(C(=O)N[C@@H](C(=O)N[C@@H]2C(=O)N3C(C(=O)O)=C(CSc4nnnn4C)CS[C@H]23)c2ccc(O)cc2)C(=O)C1=O [Cefoperazone sodium],0.0734
3,CC(C)(Cc1ccc2ccccc2c1)NC[C@@H](O)COc1cccc(Cl)c1C#N,-0.0198
4,CN(C)CCOc1ccc(/C(=C(/CCCl)c2ccccc2)c2ccccc2)cc1 [Toremifene Citrate],-0.0213
5,CN(C)CCOc1ccc(/C(=C(/CCCl)c2ccccc2)c2ccccc2)cc1 [Toremifene],0.0896
6,Cc1cc(/N=N/c2ccc(S(=O)(=O)Nc3ccccn3)cc2)c(N)cc1O,0.36
7,Cc1cc(Nc2ncnc3ccc(-c4ccc(CNCCS(C)(=O)=O)o4)cc23)ccc1Oc1ccn2ncnc2c1,0.192
8,CC(C(=O)O)c1ccc(N2Cc3ccccc3C2=O)cc1 (stereo not given) [Indoprofen],0.0792
9,COc1cc(O)c(CC=C(C)C)c(O)c1C(=O)/C=C/c1ccc(O)cc1 [Xanthohumol],0.718
10,Cc1ncc(NC(=O)c2ccc(CN3CCN(C)CC3)c(C(F)(F)F)c2)cc1Nc1nccc(-c2cccnc2)n1 [Flumatinib],-0.00874
11,Cc1cc(C)cc(C(=O)NOCCCCCC(=O)NO)c1,0.181
12,"C=C1CCC2C(/C=C(\C)C(=O)C3(OC(C)=O)CC(C)C(OC(=O)c4ccccc4)C3C1OC(C)=O)C2(C)C (stereo not given) [5,15-Diacetyl-3-benzoyllathyrol]",0.0308
13,O=c1c(-c2ccc(O)cc2)coc2c([C@@H]3O[C@H](CO)[C@@H](O)[C@H](O)[C@H]3O)c(O)ccc12 [Puerarin],-0.059
14,COCCOC(=O)C1=C(C)NC(C)=C(C(=O)OC/C=C/c2ccccc2)C1c1cccc([N+](=O)[O-])c1 (stereo not given) [Cilnidipine],0.124
15,CCOc1nc2cccc(C(=O)O)c2n1Cc1ccc(-c2ccccc2-c2noc(=O)[nH]2)cc1 [Azilsartan],0.167
16,Cc1cc([C@@H](C)Nc2ccccc2C(=O)O)c2nc(N3CCOCC3)cc(=O)n2c1,0.255
17,COc1cc(O)c(C(=O)Nc2nc(C(=O)NCCN(C(C)C)C(C)C)cs2)cc1OC [Acotiamide hydrochloride],-0.0792
18,CC(C)(Oc1ccc(C(=O)c2ccc(Cl)cc2)cc1)C(=O)O [Fenofibric acid],0.0102
19,COc1cc2nccc(Oc3ccc(NC(=O)C4(C(=O)Nc5ccc(F)cc5)CC4)cc3)c2cc1OC,-0.142
20,COc1cc2nccc(Oc3ccc(NC(=O)C4(C(=O)Nc5ccc(F)cc5)CC4)cc3)c2cc1OC [Cabozantinib malate (XL184)],0.143
21,O=C(O)/C=C/c1ccc(Cn2ccnc2)cc1 [Ozagrel],-0.000145
22,O=C(O)/C=C/c1ccc(Cn2ccnc2)cc1 [Ozagrel HCl],0.114
23,O=C1CCc2ccccc2C1 [Beta-Tetralone],-0.172
24,CCCc1nc(C)c2c(=O)nc(-c3cc(S(=O)(=O)N4CCN(CC)CC4)ccc3OCC)[nH]n12 [Vardenafil hydrochloride trihydrate],-0.0401
25,CCCc1nc(C)c2c(=O)nc(-c3cc(S(=O)(=O)N4CCN(CC)CC4)ccc3OCC)[nH]n12 [Vardenafil HCl Trihydrate],0.0757
